Bridges are numbered along the chain shown (N, C = ends). [ ]: non-standard residue; d: D form. The star is where a group is joined. ξ: configuration not given here. Lauroyl = CCCCCCCCCCCC(=O)*; Octanoyl = CCCCCCCC(=O)*; ξLac = CC(O)C(=O)O
Test: peptide made by a vendor
Settings: whole synthesis, 215 nm

Substance | final HPLC purity
H-HHHGGGCYFQNCPRG-NH2 (disulfide 7-12; SMILES N=C(N)NCCC[C@H](NC(=O)[C@@H]1CCCN1C(=O)[C@@H]1CSSC[C@H](NC(=O)CNC(=O)CNC(=O)CNC(=O)[C@H](Cc2c[nH]cn2)NC(=O)[C@H](Cc2c[nH]cn2)NC(=O)[C@@H](N)Cc2c[nH]cn2)C(=O)N[C@@H](Cc2ccc(O)cc2)C(=O)N[C@@H](Cc2ccccc2)C(=O)N[C@@H](CCC(N)=O)C(=O)N[C@@H](CC(N)=O)C(=O)N1)C(=O)NCC(N)=O) | greater than 95%
Lauroyl-GGGCYFQNCPKG-NH2 (disulfide 4-9; SMILES CCCCCCCCCCCC(=O)NCC(=O)NCC(=O)NCC(=O)N[C@H]1CSSC[C@@H](C(=O)N2CCC[C@H]2C(=O)N[C@@H](CCCCN)C(=O)NCC(N)=O)NC(=O)[C@H](CC(N)=O)NC(=O)[C@H](CCC(N)=O)NC(=O)[C@H](Cc2ccccc2)NC(=O)[C@H](Cc2ccc(O)cc2)NC1=O) | greater than 90%

Same assay, conditions: whole synthesis, 220 nm

Substance | final HPLC purity
H-HHHGGGCYFQNCPKG-NH2 (disulfide 7-12; SMILES NCCCC[C@H](NC(=O)[C@@H]1CCCN1C(=O)[C@@H]1CSSC[C@H](NC(=O)CNC(=O)CNC(=O)CNC(=O)[C@H](Cc2c[nH]cn2)NC(=O)[C@H](Cc2c[nH]cn2)NC(=O)[C@@H](N)Cc2c[nH]cn2)C(=O)N[C@@H](Cc2ccc(O)cc2)C(=O)N[C@@H](Cc2ccccc2)C(=O)N[C@@H](CCC(N)=O)C(=O)N[C@@H](CC(N)=O)C(=O)N1)C(=O)NCC(N)=O) | greater than 95%
H-HHHHHHGGGCYFQNCPKG-NH2 (disulfide 10-15; SMILES NCCCC[C@H](NC(=O)[C@@H]1CCCN1C(=O)[C@@H]1CSSC[C@H](NC(=O)CNC(=O)CNC(=O)CNC(=O)[C@H](Cc2c[nH]cn2)NC(=O)[C@H](Cc2c[nH]cn2)NC(=O)[C@H](Cc2c[nH]cn2)NC(=O)[C@H](Cc2c[nH]cn2)NC(=O)[C@H](Cc2c[nH]cn2)NC(=O)[C@@H](N)Cc2c[nH]cn2)C(=O)N[C@@H](Cc2ccc(O)cc2)C(=O)N[C@@H](Cc2ccccc2)C(=O)N[C@@H](CCC(N)=O)C(=O)N[C@@H](CC(N)=O)C(=O)N1)C(=O)NCC(N)=O) | greater than 95%
H-HHHHHHGGGCYFQNCPRG-NH2 (disulfide 10-15; SMILES N=C(N)NCCC[C@H](NC(=O)[C@@H]1CCCN1C(=O)[C@@H]1CSSC[C@H](NC(=O)CNC(=O)CNC(=O)CNC(=O)[C@H](Cc2c[nH]cn2)NC(=O)[C@H](Cc2c[nH]cn2)NC(=O)[C@H](Cc2c[nH]cn2)NC(=O)[C@H](Cc2c[nH]cn2)NC(=O)[C@H](Cc2c[nH]cn2)NC(=O)[C@@H](N)Cc2c[nH]cn2)C(=O)N[C@@H](Cc2ccc(O)cc2)C(=O)N[C@@H](Cc2ccccc2)C(=O)N[C@@H](CCC(N)=O)C(=O)N[C@@H](CC(N)=O)C(=O)N1)C(=O)NCC(N)=O) | greater than 95%
Lauroyl-[ξLac]GGGCYFQNCPKG-NH2 (disulfide 5-10; SMILES CCCCCCCCCCCC(=O)OC(C)C(=O)NCC(=O)NCC(=O)NCC(=O)N[C@H]1CSSC[C@@H](C(=O)N2CCC[C@H]2C(=O)N[C@@H](CCCCN)C(=O)NCC(N)=O)NC(=O)[C@H](CC(N)=O)NC(=O)[C@H](CCC(N)=O)NC(=O)[C@H](Cc2ccccc2)NC(=O)[C@H](Cc2ccc(O)cc2)NC1=O) | greater than 90%
Octanoyl-GGGCYFQNCPKG-NH2 (disulfide 4-9; SMILES CCCCCCCC(=O)NCC(=O)NCC(=O)NCC(=O)N[C@H]1CSSC[C@@H](C(=O)N2CCC[C@H]2C(=O)N[C@@H](CCCCN)C(=O)NCC(N)=O)NC(=O)[C@H](CC(N)=O)NC(=O)[C@H](CCC(N)=O)NC(=O)[C@H](Cc2ccccc2)NC(=O)[C@H](Cc2ccc(O)cc2)NC1=O) | greater than 90%
Octanoyl-[ξLac]GGGCYFQNCPKG-NH2 (disulfide 5-10; SMILES CCCCCCCC(=O)OC(C)C(=O)NCC(=O)NCC(=O)NCC(=O)N[C@H]1CSSC[C@@H](C(=O)N2CCC[C@H]2C(=O)N[C@@H](CCCCN)C(=O)NCC(N)=O)NC(=O)[C@H](CC(N)=O)NC(=O)[C@H](CCC(N)=O)NC(=O)[C@H](Cc2ccccc2)NC(=O)[C@H](Cc2ccc(O)cc2)NC1=O) | greater than 95%
